Test results reported in PubChem BioAssay AID1347075 (National Center for Advancing Translational Sciences (NCATS), 2019).
The campaign covered roughly 400,000 compounds. About 5,500 (1.4%) were called active. Inconclusive means that the source gave no clear call. Such entries were picked first, then a sample of the others. The call rests on the fitted dose curve; in most records, active means well fitted cell-killing curve with a large enough effect; inconclusive means small, poorly fitted or top-dose-only effect, or effect the other way; inactive means flat fitted curve, though single readings scatter. A potency beside an inconclusive call is a rough fit, not a confirmed value.

assay: qHTS assay for MDR1-selective chemotherapeutics: Primary screen using the parental adenocarcinoma cell KB-3-1; details: KB-3-1 viability, CellTiter-Glo ATP luminescence, 72 h; activity change, negative = cytotoxic: at 46.1 µM (top of the series); further: nearly all actives have a fitted effect of over 60% in size
How it was run: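 Viability of parental KB-3-1 cells, measured by CellTiter-Glo luminescence, followed a 72 h incubation at 37 °C with pinned compounds in phenol-red-free DMEM containing 10% FBS.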
On the % scale 0 is the no-effect control and ±100 the full control effect; potency means the concentration at half of the fitted maximal effect.

Row | Compound | Potency | activity change, negative = cytotoxic
1 | CCOc1ccc(/C=C/C(O)=C2/C(=O)NC3(C)CC2c2ccccc2O3)cc1OC (stereo not drawn) | inconclusive: 8.2 µM [cytotoxic, partial curve, poor fit] | 
2 | O=C(N/N=C/c1sc(N2CCOCC2)nc1-c1ccccc1)c1cccc(S(=O)(=O)N2CCOCC2)c1 | active: 4.11 µM | 
3 | CCc1nc2sc3ccccc3c(=O)c2c(=O)n1Cc1ccco1 | inactive | 
4 | Cc1ccc(C(c2nnnn2CCc2ccccc2)N2CCSCC2)cc1 (stereo not drawn) | inactive | 
5 | c1ccc(Nc2nc(NCc3ccco3)c3ccccc3n2)cc1 | inconclusive: 23.1 µM [cytotoxic, single point] | 
6 | O=C(CCC1CCCN(C(=O)CCN2CCCCC2=O)C1)NCc1ccccc1F (stereo not drawn) | inconclusive: 2.59 µM [rising, partial curve, poor fit] | 
7 | O=C(CSc1nnc(-c2ccccc2Cl)o1)Nc1ccccn1 | inconclusive: 32.6 µM [cytotoxic, partial curve, poor fit] | 
8 | COCCN(C(=O)CSCC(=O)Nc1cccc(C)c1)c1c(N)n(Cc2ccccc2)c(=O)[nH]c1=O | inconclusive: 29.1 µM [rising, single point] | 
9 | COc1ccccc1Oc1nc2c(c(=O)n(C)c(=O)n2C)n1Cc1cccc(Br)c1 | inconclusive: 10.3 µM [cytotoxic, partial curve, poor fit] | 
10 | C(=C\c1ccccc1)/C=N/Nc1nc2ccccc2[nH]1 | active: 14.6 µM | 
11 | Oc1ccc(/C=N\Nc2nncc(-c3ccccc3)n2)cc1 | inconclusive: 18.4 µM [cytotoxic, single point] | 
12 | C[C@H](CO)N1C[C@H](C)[C@@H](CN(C)S(=O)(=O)c2cccs2)Oc2ccc(NS(=O)(=O)c3ccccc3)cc2C1=O | inactive | 
13 | COc1ccc(CNC(=O)c2ccc3ccccc3n2)cc1OC | inconclusive: 5.17 µM [cytotoxic, partial curve] | 
14 | CCN(CC)S(=O)(=O)c1ccc(NC(=O)c2ccc(CN3CCOCC3)cc2)cc1 | active: 3.26 µM | 
15 | O=C(NCCN1C(=O)S/C(=C\c2ccc(OC(F)F)cc2)C1=O)[C@@H]1CCCN1C(=O)c1cccs1 | inactive | 
16 | NC(N)=N/N=C/c1cccc(Cl)c1Cl | inconclusive: 29.1 µM [cytotoxic, single point] | 
17 | O=C(NCc1ccc2c(c1)CCN2C(=O)c1ccc(F)cc1)c1ccc(Br)o1 | inconclusive: 3.26 µM [cytotoxic, full curve, poor fit] | 
18 | CC(C)=N/N=C1/NC(=O)C(Cc2ccccc2)S1 (stereo not drawn) | inconclusive: 0.0326 µM [rising, full curve] | 
19 | COc1ccc(S(=O)(=O)N2CCCCCC2)cc1C(=O)N(C)CC(=O)Nc1ccc(Cl)c(Cl)c1 | inactive | 
20 | CN(CC(=O)Nc1ccccc1Br)c1ncnc2sccc12 | inconclusive: 18.4 µM [cytotoxic, single point] | 
21 | CCN(CC)S(=O)(=O)c1ccc(OCC2CCCCO2)c([N+](=O)[O-])c1 (stereo not drawn) | inactive | 
22 | O=C1CC[C@H](O)CCN1[C@H](CSc1ccccc1)Cc1ccccc1 | inactive | 
23 | CCCC(=O)NC(c1ccccc1)c1ccc2cccnc2c1O (stereo not drawn) | inconclusive: 5.8 µM [cytotoxic, full curve, poor fit] | 
24 | Nc1nnc2c(C(F)(F)F)nc3ccccc3n12 | inactive | 
25 | Clc1ccc(CSc2nnc(-c3ccccn3)n2Cc2ccco2)cc1Cl | inconclusive: 29.1 µM [cytotoxic, single point] | 

Filtered by structure, the entries above with an aryl thioether with sulfur outside any ring
Row | Compound | Potency | activity change, negative = cytotoxic
7 | O=C(CSc1nnc(-c2ccccc2Cl)o1)Nc1ccccn1 | inconclusive: 32.6 µM [cytotoxic, partial curve, poor fit] | 
22 | O=C1CC[C@H](O)CCN1[C@H](CSc1ccccc1)Cc1ccccc1 | inactive | 
25 | Clc1ccc(CSc2nnc(-c3ccccn3)n2Cc2ccco2)cc1Cl | inconclusive: 29.1 µM [cytotoxic, single point] | 

(list continues)

Row | Compound | Potency | activity change, negative = cytotoxic
26 | COC(CN(C(=O)CCl)C(C(=O)NC1CCCCC1)c1ccc(C)cc1)OC (stereo not drawn) | inconclusive: 16.4 µM [cytotoxic, single point] | 
27 | COc1ccc(S(=O)(=O)N(CCc2ccccc2)CC(=O)N/N=C/c2ccc3c(c2)OCO3)cc1 | inconclusive: 32.6 µM [cytotoxic, single point] | 
28 | Cc1ccc(-c2nc(C(=O)NCCCN3CCOCC3)cc3c2[nH]c2ccccc23)cc1 | inactive | 
29 | Cc1ccccc1-n1nnnc1SC(C)C(=O)Nc1ccc(N2CCN(C)CC2)cc1 (stereo not drawn) | inconclusive: 29.1 µM [cytotoxic, single point] | 
30 | O=C(NNC(=O)c1nc2ccccc2[nH]1)OCc1ccccc1 | inactive | 
31 | CC(=O)N1N=C(c2c(-c3ccccc3)c3cc(Br)ccc3[nH]c2=O)CC1c1ccco1 (stereo not drawn) | inconclusive: 29.1 µM [cytotoxic, single point] | 
32 | O=C(Cn1c(=O)n(-c2ccc(F)cc2)c(=O)c2sc3ccccc3c21)N1CCCC1 | inactive | 
33 | CCOC(=O)c1c(N)n(-c2ccc(C)c(C)c2)c2nc3ccccc3nc12 | inactive | 
34 | CC(C)(CNCc1ccccc1)NS(=O)(=O)c1ccc(Cl)cc1 | inactive | 
35 | Cc1noc(NS(=O)(=O)c2ccc(NC(=O)c3oc4ccc(Cl)cc4c3C)cc2)c1C | inconclusive: 16.4 µM [cytotoxic, single point] | 
36 | COc1ccc2nc(NNC(=O)c3cc(=O)c4ccccc4o3)sc2c1 | inconclusive: 25.9 µM [cytotoxic, single point] | 
37 | Cc1cccc[n+]1C1C(c2ccccc2)C(C#N)=C(C(=C=[N-])C#N)NC1(O)C1CC1 (stereo not drawn) | inactive | 
38 | COC(=O)c1cccc(NC(=O)CC2C(=O)NCCN2C(=O)Nc2ccccc2)c1 (stereo not drawn) | inconclusive: 29.1 µM [rising, single point] | 
39 | O=C(c1[nH]c(C(F)(F)F)nc1-c1ccccc1)N1CCN(CCN2CCOCC2)CC1 |  | inconclusive: 0.0564%
40 | CCCCn1nnnc1C(c1ccccc1)N1CCN(c2ccc(C(F)(F)F)cn2)CC1 (stereo not drawn) | inconclusive: 18.4 µM [cytotoxic, partial curve, poor fit] | 
41 | COC(=O)c1c(C)n(-c2ccccc2)c2ccc(O)cc12 | inconclusive: 29.1 µM [cytotoxic, single point] | 
42 | O=C(Nc1cccn(Cc2c(Cl)cccc2Cl)c1=O)c1ccc(Cl)cc1Cl | active: 20.6 µM | 
43 | O=C(NCc1ccccc1)c1onc(CSc2ccccc2)c1C(=O)NCC1CC1 | inconclusive: 29.1 µM [cytotoxic, single point] | 
44 | COc1ccc(C=O)cc1COc1ccc([N+](=O)[O-])c(C)c1 | inactive | 
45 | Cc1onc(-c2ccccc2)c1C(=O)Nc1cc(C(F)(F)F)ccc1N1CCOCC1 | active: 5.8 µM | 
46 | O=C(NCCCN1CCOCC1)c1cc2c([nH]c3ccccc32)c(-c2cccc(Br)c2)n1 | inconclusive: 18.4 µM [cytotoxic, single point] | 
47 | CCOc1ncccc1C(=O)Nc1cc(S(=O)(=O)N2CCOCC2)ccc1N1CCCC1 | inconclusive: 29.1 µM [rising, single point] | 
48 | COc1ccc(OC)c(C(=O)CSc2nnc(C3CC3)n2C2CC2)c1 | active: 16.4 µM | 
49 | O=C(NCCN1CCCCC1)c1cc(Cl)ccc1Cl | inactive | 
50 | CC(=O)Nc1ccc(-c2cc(-c3ccccc3)nc(-c3ccccc3)n2)cc1 | inactive | 

Row | Compound | Potency | activity change, negative = cytotoxic
51 | CC(=O)c1ccc(N2CCN(C(=O)c3cc(S(=O)(=O)N4CCCCCC4)cn3C)CC2)cc1 | inactive | 
52 | O=C(CN1CCOCC1)N1c2ccccc2Sc2ccccc21 | inactive | 
53 | Oc1ccc(Cn2ccnc2)c2cccnc12 | inconclusive: 8.2 µM [cytotoxic, single point] | 
54 | COC(=O)c1ccccc1NC(=O)C1CCCC1 | inconclusive: 5.17 µM [cytotoxic, full curve, poor fit] | 
55 | CC(=O)Nc1ccc(S(=O)(=O)Oc2ccc(N3C(=O)C4CCCCC4C3=O)cc2)cc1 (stereo not drawn) | inconclusive: 18.4 µM [cytotoxic, single point] | 
56 | CN(C)C/C=C/C(O)(c1ccccc1)c1ccccc1 | inactive | 
57 | COc1ccc(-n2c(SCC(=O)Nc3cc(C)on3)nc3c([nH]c4ccccc43)c2=O)cc1 | inconclusive: 29.1 µM [cytotoxic, single point] | 
58 | COc1ccc(NC(=O)c2nnn(Cc3cccc(F)c3)c2N)c(OC)c1 | active: 6.51 µM | 
59 | COc1ccc(CCNc2nc(C)nc3c2oc2ccccc23)cc1OC | inconclusive: 29.1 µM [cytotoxic, single point] | 
60 | Cc1cc(C)n(CCC(=O)Nc2ccc(-c3ccno3)cc2)n1 | inactive | 
61 | O=C(Cc1ccc(Cl)cc1)NC1CCCN(Cc2ccccc2F)C1 (stereo not drawn) | inactive | 
62 | OCC[C@H]1C[C@@H](O)[C@H](O)[C@@]2(CCCCO2)O1 | inconclusive: 29.1 µM [rising, single point] | 
63 | Cc1cc(Nc2ccc3ccccc3c2)n2ncnc2n1 | inconclusive: 16.4 µM [cytotoxic, single point] | 
64 | Cc1ccc(CN2CCCn3nc(C(=O)NCc4ccc(N(C)C)cc4)cc3C2=O)cc1 | inconclusive: 5.17 µM [cytotoxic, full curve] | 
65 | CC(NNC(=S)N1CCCCCC1)c1ccc2ccccc2n1 (stereo not drawn) | inconclusive: 29.1 µM [cytotoxic, single point] | 
66 | CNS(=O)(=O)c1cccc(C(=O)OCCCOC(=O)c2cccc(S(=O)(=O)NC)c2)c1 | inactive | 
67 | Clc1ccc2c(c1)C1=C(C(c3ccncc3)O2)C(c2ccc(Br)cc2)n2ncnc2N1 (stereo not drawn) | inconclusive: 16.4 µM [cytotoxic, single point] | 
68 | O=C(NN1CCOCC1)c1cccc(Cl)c1 | inactive | 
69 | O=C(CO/N=C/c1ccccc1O)N1CCc2ccccc21 | inactive | 
70 | CCOC(=O)[C@H]1[C@H]2COc3ccc(Br)cc3[C@@H]2N2C(=O)c3c(C)cc(C)cc3NC(=O)[C@@]12C |  | inconclusive: -0.289%
71 | Cc1cnc2c(C)cccc2c1C | inactive | 
72 | O=c1c2ccccc2nc(SCc2cn3ccsc3n2)n1-c1ccc(F)cc1 | inconclusive: 18.4 µM [cytotoxic, single point] | 
73 | Cc1ccc(NC(=S)NC(=O)c2cncc(Br)c2)cc1Cl | inactive | 
